The results in this text go back to paper PMC9499238, “SIRT5 is a proviral factor that interacts with SARS-CoV-2 Nsp14 protein” (PLoS Pathogens, 2022).

Results are given in words; binding and its absence hold for the method and conditions named. In cells and extracts the contact can be indirect. A yes stands for co-enrichment or nearness to the bait. Other partners may have been found.

For this assay, the target named is SARS-CoV-2 Nsp14 with a C-terminal 2xStrep affinity tag (SARS-CoV-2) (UniProt P0DTD1). Put plainly: affinity purification with mass spectrometry.

In the case of “IMDH2, human, endogenous (from UniProt P12268 1-514)”, the binding entry is on record as “binds”.

B1: GLA, human, endogenous (protein, UniProt P06280 32-429)
chain: LDNGLARTPTMGWLHWERFMCNLDCQEEPDSCISEKLFMEMAELMVSEGWKDAGYEYLCIDDCWMAPQRDSEGRLQADPQRFPHGIRQLANYVHSKGLKLGIYADVGNKTCAGFPGSFGYYDIDAQTFADWGVDLLKFDGCYCDSLENLADGYKHMSLALNRTGRSIVYSCEWPLYMWPFQKPNYTEIRQYCNHWRNFADIDDSWKSIKSILDWTSFNQERIVDVAGPGGWNDPDMLVIGNFGLSWNQQVTQMALWAIMAAPLFMSNDLRHISPQAKALLQDKDVIAINQDPLGKQGYQLRQGDNFEVWERPLSGLAWAVAMINRQEIGGPRSYTIAVASLGKGVACNPACFITQLLPVKRKLGFYEWTSRLRSHINPTGTVLLQLENTMQMSLKDLL
With B1, the binding entry was “binds”.
